# Results from the supplement of paper PMC3334620.
# Over roughly 33,000 sequences, “E-score (-0.5 to 0.5)” has its median near -0.015; the highest 2% begin near 0.3. The list shows a part of the results.
# Target: T1, Abf1 (UniProt P14164)
# T1 sequence: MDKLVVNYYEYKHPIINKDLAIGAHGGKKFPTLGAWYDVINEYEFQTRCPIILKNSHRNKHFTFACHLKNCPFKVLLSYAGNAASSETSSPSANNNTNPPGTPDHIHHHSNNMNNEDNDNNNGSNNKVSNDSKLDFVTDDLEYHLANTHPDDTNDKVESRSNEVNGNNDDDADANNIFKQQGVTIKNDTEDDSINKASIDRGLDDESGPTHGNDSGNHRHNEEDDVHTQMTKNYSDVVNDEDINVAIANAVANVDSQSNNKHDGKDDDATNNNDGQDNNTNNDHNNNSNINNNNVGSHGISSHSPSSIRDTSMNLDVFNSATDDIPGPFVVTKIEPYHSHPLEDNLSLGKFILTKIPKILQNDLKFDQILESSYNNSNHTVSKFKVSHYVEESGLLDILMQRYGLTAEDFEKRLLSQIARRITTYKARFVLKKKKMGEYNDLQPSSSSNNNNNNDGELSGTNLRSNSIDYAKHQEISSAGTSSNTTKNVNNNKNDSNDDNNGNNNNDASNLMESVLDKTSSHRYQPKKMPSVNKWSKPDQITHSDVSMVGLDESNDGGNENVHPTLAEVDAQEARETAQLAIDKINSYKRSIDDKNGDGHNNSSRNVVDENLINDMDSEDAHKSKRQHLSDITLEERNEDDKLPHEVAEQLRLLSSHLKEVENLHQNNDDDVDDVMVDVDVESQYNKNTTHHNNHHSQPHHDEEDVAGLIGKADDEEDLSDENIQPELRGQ
# Assay: PBM E-score (8-mer binding enrichment) (E-score (-0.5 to 0.5)); higher = stronger / more preferred TF binding
# Details: protein concentration: 200 nM; construct: GST-full length
# In short: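 Yeast transcription factors carrying a GST tag, as full-length proteins or DNA-binding domains, were produced by PURExpress in vitro transcription/translation. About 100-200 nM protein was applied to universal all-10-mer Agilent arrays, double-stranded by primer extension on fresh or once-stripped slides. Bound protein was detected with fluorescent anti-GST, and scans were normalised with masliner. The Universal PBM Analysis Suite gave each ungapped eight-base word, pooled with its reverse complement, an E-score, a modified Wilcoxon-Mann-Whitney statistic.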
row,Sequence,PBM E-score
1,AGTAATGG,-0.0441
2,GAACCTTA,0.00165
3,ATTTCGTG,0.288
4,AGGACCCG,-0.0411
5,CAGCCCTA,-0.154
6,AATATATA,0.0807
7,ATTTGTAA,0.204
8,TCGTCCCA,0.163
9,ATAGCCGA,0.0734
10,AACGCAGT,-0.188
11,CTAACAGC,-0.0486
12,GGGATCTA,-0.02
13,GGGTTCAC,0.00438
14,GAGTATCC,0.0845
15,ATGCTGTA,0.0278
16,CATAGACC,-0.17
17,CAGTAGTA,-0.0294
18,GAGTATCA,0.0372
19,TCGCATCA,0.192
20,ATGATCAG,0.269
21,ACAATTCT,0.0167
22,CTCAGTGA,0.051
23,AAGTGCTC,-0.112
24,GCTGTAGA,-0.128
25,ACCACCAA,-0.234

row,Sequence,PBM E-score
1,ATGTGAAA,0.0939
2,CGAACCTA,-0.0863
3,ACTTGTTA,0.0808
4,ACCCGCAA,-0.277
5,CCATGCCC,-0.316
6,ATCTTCTC,0.0816
7,CTGCGCAG,-0.0277
8,CCTGGATC,-0.156
9,CTCACGCA,0.267
10,CTGGGCCA,-0.346
11,ATTATAAC,0.161
12,AGATCCGC,0.0185
13,CAGCACAG,0.00665
14,GTGTTAGA,0.118
15,GCGACTGA,-0.102
16,AGGAGTCG,-0.142
17,CAACGATA,0.25
18,ATGCCAAC,0.0313
19,AAATCTAG,0.045
20,CACAGCGG,-0.17
21,AATAGGGA,-0.114
22,GAACAATA,0.132
23,ATTAGTGC,0.148
24,TCAGGCGA,0.0781
25,GCTGGCAA,0.033

row,Sequence,PBM E-score
1,AAATTTGT,0.152
2,AGGAAGAT,-0.0381
3,GAGAAGAC,0.0656
4,CCGTCGCG,0.0721
5,CAGAAGAG,-0.0546
6,ATTCCGTG,0.23
7,ACTATCTA,0.116
8,CAGCCTCG,-0.0704
9,GAGCAAGA,-0.106
10,CCGAGAGG,-0.217
11,GTTCGGGA,-0.182
12,GGTGTTTA,-0.144
13,GTGAGATA,0.206
14,CCTGCCCG,-0.0943
15,AGAATGTG,0.0169
16,CGTACAAA,0.408
17,ATCCGAGC,-0.197
18,CCACGAAG,0.0703
19,CCGTGCCG,0.139
20,CTTTACCA,-0.0514
21,AGACTAAA,-0.0426
22,CACGCCAG,-0.19
23,AGATTTAC,-0.00972
24,ACTGTCAT,0.0825
25,AAGCCGTC,0.122

row,Sequence,PBM E-score
1,GAACCTGC,0.0103
2,ATGGTACC,-0.205
3,AAGAACAA,0.159
4,AAACAGGC,0.0516
5,GGAGAGAA,0.0256
6,CACAACGG,0.172
7,CATGGCCG,-0.236
8,TGCACACA,0.0666
9,CTTCGATC,-0.00251
10,CCTTGAGC,-0.126
11,GATCCGTA,0.0294
12,ATGGAAGG,-0.246
13,ATCTACGC,0.0634
14,CAAGAATA,-0.00994
15,CATACTGC,-0.0482
16,CCCTACCG,-0.213
17,CAGGCGGG,-0.255
18,TAAAAGAA,0.126
19,TGGTAGAA,-0.0563
20,GTTCAAAC,0.184
21,ATGAAGAG,0.0548
22,AACAGTCA,-0.00394
23,ACAGTCAT,-0.0824
24,ACCGCTCC,-0.211
25,CGGTAACC,-0.221

row,Sequence,PBM E-score
1,AGTGGCAC,-0.109
2,AAGTGAGG,-0.0213
3,CTTCGAAA,0.0483
4,ATGACTCA,0.243
5,ATTGACGA,0.377
6,ATGCAAAC,-0.138
7,TTATGGAA,0.0336
8,GTCAGAGA,0.0184
9,CCCATAAA,-0.054
10,CAGCCTGA,-0.063
11,ACTTTTAC,0.249
12,ACTTAGAA,-0.121
13,GAGTCCCC,-0.331
14,ATCCAATC,0.171
15,ACAGGAGT,-0.0385
16,AGCACGGC,0.0922
17,TACGCTGA,0.126
18,AATGGTGA,0.0239
19,GCCATAGA,-0.126
20,AGAAATAA,0.132
21,AGACTTAA,0.116
22,CGGGCTGA,-0.063
23,AATCTTAA,0.0217
24,CGGCGAAA,0.0826
25,ATCCGGAG,-0.0495

row,Sequence,PBM E-score
1,CGCCTGTA,-0.234
2,AATAAATG,0.149
3,AAACAATG,0.0947
4,GTGGATGA,0.153
5,CCCACCGG,-0.202
6,ACATGCAT,-0.129
7,AGAAGTCG,0.0466
8,CATGTCTA,0.0035
9,GTGGGCTA,-0.107
10,TCCATCAA,0.117
11,GGAGGTGA,0.166
12,AAACCTTG,-0.24
13,ATAACTAA,0.129
14,CACGTCAG,0.0977
15,ATGTTTAC,-0.169
16,CGTAGGAG,0.134
17,ACTGGTCC,-0.211
18,GCGCAGAA,-0.029
19,AAGTATCT,0.0923
20,GGCTGCAC,-0.25
21,GGCATTAA,0.0614
22,AGTCAACC,-0.102
23,GATGCTTA,0.138
24,ACCCCCGC,-0.232
25,AGCAGGAT,0.0229

# Part of the list above, tab-delimited:
row	Sequence	PBM E-score
2	AATAAATG	0.149
3	AAACAATG	0.0947
4	GTGGATGA	0.153
5	CCCACCGG	-0.202
6	ACATGCAT	-0.129
7	AGAAGTCG	0.0466
8	CATGTCTA	0.0035

# The listing continues:

row,Sequence,PBM E-score
1,ATAATAAT,0.216
2,ACATTCGA,0.0247
3,CGCTCAAC,-0.06
4,GGGATATA,-0.045
5,AGCCGGGC,-0.291
6,GTTGGGAA,0.049
7,GAACAGAC,-0.0783
8,GAGCAGGC,-0.357
9,ATCATAAG,0.105
10,TAGGCCAA,-0.067
11,AGCCCCGA,-0.268
12,ATTCGATC,0.0347
13,GTGGGTAA,-0.158
14,GACAGGCA,-0.153
15,ACTGAAGT,-0.0998
16,GGTATAGA,-0.0536
17,AAAGTATT,0.154
18,CGGTGTAA,0.00282
19,CACGCGCC,0.0117
20,GAGTAAGA,-0.0101
21,GGACGGGA,-0.166
22,GCTTAACC,-0.182
